Results published in the supplement of paper PMC12067093, “Discovery and optimisation of a covalent ligand for TRIM25 and its application to targeted protein ubiquitination” (Chemical Science, 2025).
The list shows a part of the results.

Compound: Cc1cc(ccc1-c1ccccc1)C(=O)N1CCCN(CC1)C(=O)CCl [compound 10]
Test: probe-labelled cysteine peptide fold change vs DMSO (competition) (log2 fold change); higher = less target engagement (more negative = stronger competition)
Details: THP-1, incubation time: 4 h
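Also: competitive profiling in live THP-1 cells: cysteine peptides tagged with an iodoacetamide desthiobiotin (IA-DTB) probe, intensity after compound treatment relative to DMSO-treated cells.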

| Target | probe-labelled cysteine peptide fold change (10 µM) | probe-labelled cysteine peptide fold change (50 µM) |
| --- | --- | --- |
| GPRIN1_Q7Z2K8_221_VDPLCSSK (UniProt Q7Z2K8) | 0.0483 | -0.177 |
| GPSM3_Q9Y4H4_116_ATFYTPQNPSSLAPAPLRPLEDREQLYSTILSHQCQR (UniProt Q9Y4H4) | 0.138 | -0.288 |
| GPATCH8_Q9UKJ3_795_HKGELPPSSCQR (UniProt Q9UKJ3) | 0.176 | -0.284 |
| GNB2_P62879_294_LLLAGYDDFNCNIWDAMK (UniProt P62879) | 0.0495 | 0.0696 |
| GPATCH1_Q9BRR8_534_CLDPSMTEWER (UniProt Q9BRR8) | 0.256 | 0.0388 |
| GLG1_Q92896_1092_QMSCLMEALEDK (UniProt Q92896) | -0.0727 | -0.0185 |
| GNL3_Q9BVP2_113_EFGLCK (UniProt Q9BVP2) | -0.03 | -0.371 |
| GLG1_Q92896_1071_ADIFVDPVLHTACALDIK (UniProt Q92896) | -0.343 | -0.187 |
| GNPTG_Q9UJJ9_157_LAHVSEPSTCVYALTFETPLVCHPHALLVYPTLPEALQR (UniProt Q9UJJ9) | 0.244 | 0.134 |
| GNA15_P30679_345_LFSHYTCATDTQNIR (UniProt P30679) | 0.0165 | 0.0256 |
| GNB4_Q9HAV0_294_LLLAGYDDFNCNVWDTLK (UniProt Q9HAV0) | 0.0303 | 0.0959 |
| GPATCH2_Q9NW75_188_TMTQPPEGCRDQDMDSDR (UniProt Q9NW75) | -0.107 | -0.348 |
| GMIP_Q9P107_529_CLETLLILCGHR (UniProt Q9P107) | 0.0572 | 0.116 |
| GOLGA2_Q08379_984_ERPGLGSNPCIPFFYR (UniProt Q08379) | -0.149 | -0.0471 |
| GLMP_Q8WWB7_300_ESALPCQASPLHPALAYSLPQSPIVR (UniProt Q8WWB7) | 0.0408 | 0.106 |
| GLS_O94925_518_GIHFCHDLVSLCNFHNYDNLR (UniProt O94925) | -0.0806 | -0.0918 |
| GMDS_O60547_237_IYLGQLECFSLGNLDAK (UniProt O60547) | 0.00025 | -0.0367 |
| GNL3_Q9BVP2_158_CPQVEEAIVQSGQK (UniProt Q9BVP2) | -0.0215 | -0.136 |

In a second layout: results already given.
Target	probe-labelled cysteine peptide fold change (10 µM)	probe-labelled cysteine peptide fold change (50 µM)
GPSM3_Q9Y4H4_116_ATFYTPQNPSSLAPAPLRPLEDREQLYSTILSHQCQR (UniProt Q9Y4H4)	0.138	-0.288
GNB2_P62879_294_LLLAGYDDFNCNIWDAMK (UniProt P62879)	0.0495	0.0696
GLG1_Q92896_1092_QMSCLMEALEDK (UniProt Q92896)	-0.0727	-0.0185
GNL3_Q9BVP2_113_EFGLCK (UniProt Q9BVP2)	-0.03	-0.371
GNA15_P30679_345_LFSHYTCATDTQNIR (UniProt P30679)	0.0165	0.0256
GNB4_Q9HAV0_294_LLLAGYDDFNCNVWDTLK (UniProt Q9HAV0)	0.0303	0.0959
GMIP_Q9P107_529_CLETLLILCGHR (UniProt Q9P107)	0.0572	0.116
GOLGA2_Q08379_984_ERPGLGSNPCIPFFYR (UniProt Q08379)	-0.149	-0.0471
GLMP_Q8WWB7_300_ESALPCQASPLHPALAYSLPQSPIVR (UniProt Q8WWB7)	0.0408	0.106
GMDS_O60547_237_IYLGQLECFSLGNLDAK (UniProt O60547)	0.00025	-0.0367

Following part

| Target | probe-labelled cysteine peptide fold change (10 µM) | probe-labelled cysteine peptide fold change (50 µM) |
| --- | --- | --- |
| GNPNAT1_Q96EK6_128_VEDVVVSDECR (UniProt Q96EK6) | 0.0948 | 0.203 |
| GLS_O94925_266_FSPDLWGVSVCTVDGQR (UniProt O94925) | 0.016 | 0.199 |
| GPD1L_Q8N335_104_ICDEITGR (UniProt Q8N335) | 0.018 | 0.114 |
| GMPPA_Q96IJ6_335_ESIVLHGATLQEHTCVLHSIVGWGSTVGR (UniProt Q96IJ6) | -0.149 | 0.0194 |
| GNPNAT1_Q96EK6_157_ITLECLPQNVGFYK (UniProt Q96EK6) | -0.166 | 0.152 |
| GNB1_P62873_204_LFVSGACDASAK (UniProt P62873) | -0.0971 | -0.11 |
| GNPNAT1_Q96EK6_128_GRVEDVVVSDECR (UniProt Q96EK6) | -0.133 | 0.0486 |
| GNB2_P62879_204_TFVSGACDASIK (UniProt P62879) | 0.0688 | 0.0376 |
| GMPR2_Q9P2T1_222+224_GHIISDGGCSCPGDVAK (UniProt Q9P2T1) | -0.11 | -0.49 |
| GLG1_Q92896_984_LSSDCEDQIR (UniProt Q92896) | -0.26 | 0.133 |
| GOLGB1_Q14789_3144_KSDPEELREPQQSFSEAQQQLCNTR (UniProt Q14789) | 0.0431 | -0.388 |
| GLRX_P35754_8_AQEFVNCK (UniProt P35754) | -0.0439 | -0.327 |
| GNAI2_P04899_140_LWADHGVQACFGR (UniProt P04899) | 0.0426 | 0.0337 |
| GPR108_Q9NPR9_104_DFQDCPLQK (UniProt Q9NPR9) | -0.24 | -0.0357 |
| GNPDA2_Q8TDQ7_239_TIFVCDEDATLELR (UniProt Q8TDQ7) | 0.133 | 0.278 |
| GPI_P06744_404_MIPCDFLIPVQTQHPIR (UniProt P06744) | -0.0103 | 0.2 |
| GPATCH1_Q9BRR8_485_AQLSPAAAAGHCSWNMALGGGTATLK (UniProt Q9BRR8) | -0.0776 | -1.25 |
